Data set [1] is described as follows: general procedure: Fmoc solid-phase peptide synthesis; Trityl PS resin. Conditions: whole synthesis, scale 50 μmol.
Data set [2] can be described thus: general procedure: Fmoc solid-phase peptide synthesis; Rink amide resin. The conditions noted are these: whole synthesis.
Data set [3] can be described thus: general procedure: Fmoc solid-phase peptide synthesis; low loaded Rink amide resin. Conditions: whole synthesis, scale 50 μmol, bicyclic.

In patent publication US20250339569A1 (priority 2021, published 2025) one finds isolated yield and isolated mass data, which are given here for 13 substances.

For part of these data: Some peptides are written in HELM: one residue between dots, names in brackets for other building blocks, links after the first $. Starred links: 1 amine or outer side, 2 acyl side, 3 side chain; linkers in the order of their positions; H or OH if unused. Positions of bridges follow the written chain, without caps; N, C: chain ends. Non-standard residues stand in square brackets, D forms with d. *: point of attachment. NH(CH2)5NHDOTA = O=C(O)CN1CCN(CC(=O)O)CCN(CC(=O)NCCCCCN*)CCN(CC(=O)O)CC1; NH(CH2)3NHDOTA = O=C(O)CN1CCN(CC(=O)O)CCN(CC(=O)NCCCN*)CCN(CC(=O)O)CC1; NH(1-deoxy-D-glucityl) = OC[C@@H](O)[C@@H](O)[C@H](O)[C@@H](O)CN*; DOTA = O=C(O)CN1CCN(CC(=O)O)CCN(CC(=O)*)CCN(CC(=O)O)CC1; X6 = O=C(O)CCC(=O)Nc1cccc(C[C@H](N[*:1])C(=O)[*:2])c1; mXylylene = c1cc(C[*:1])cc(C[*:2])c1; X2 = O=C(CN1CCC(N[*:1])CC1)[*:2]; Dap = NC[C@H](N)C(=O)O; AEEA = NCCOCCOCC(=O)O

In the case of “Ac-VYCE[dP]DWLTWAC-{NH(CH2)5NHDOTA} (linker 3-12 via mXylylene; SMILES CC(=O)N[C@H](C(=O)N[C@@H](Cc1ccc(O)cc1)C(=O)N[C@H]1CSCc2cccc(c2)CSC[C@@H](C(=O)NCCCCCNC(=O)CN2CCN(CC(=O)O)CCN(CC(=O)O)CCN(CC(=O)O)CC2)NC(=O)[C@H](C)NC(=O)[C@H](Cc2c[nH]c3ccccc23)NC(=O)[C@H]([C@@H](C)O)NC(=O)[C@H](CC(C)C)NC(=O)[C@H](Cc2c[nH]c3ccccc23)NC(=O)[C@H](CC(=O)O)NC(=O)[C@H]2CCCN2C(=O)[C@H](CCC(=O)O)NC1=O)C(C)C)”, in data set [1], the isolated yield is 6.7%.
In data set [2] (scale 50 μmol), “Ac-VYCE[dP]DWLTWAC[AEEA]K(DOTA)-NH2 (linker 3-12 via mXylylene; SMILES CC(=O)N[C@H](C(=O)N[C@@H](Cc1ccc(O)cc1)C(=O)N[C@H]1CSCc2cccc(c2)CSC[C@@H](C(=O)NCCOCCOCC(=O)N[C@@H](CCCCNC(=O)CN2CCN(CC(=O)O)CCN(CC(=O)O)CCN(CC(=O)O)CC2)C(N)=O)NC(=O)[C@H](C)NC(=O)[C@H](Cc2c[nH]c3ccccc23)NC(=O)[C@H]([C@@H](C)O)NC(=O)[C@H](CC(C)C)NC(=O)[C@H](Cc2c[nH]c3ccccc23)NC(=O)[C@H](CC(=O)O)NC(=O)[C@H]2CCCN2C(=O)[C@H](CCC(=O)O)NC1=O)C(C)C)” gave an isolated mass of 24.15 mg and an isolated yield of 11.1%.
Regarding “Ac-VYCE[dP]DWLTWE(NH(CH2)3NHDOTA)C-NH2 (linker 3-12 via mXylylene; SMILES CC(=O)N[C@H](C(=O)N[C@@H](Cc1ccc(O)cc1)C(=O)N[C@H]1CSCc2cccc(c2)CSC[C@@H](C(N)=O)NC(=O)[C@H](CCC(=O)NCCCNC(=O)CN2CCN(CC(=O)O)CCN(CC(=O)O)CCN(CC(=O)O)CC2)NC(=O)[C@H](Cc2c[nH]c3ccccc23)NC(=O)[C@H]([C@@H](C)O)NC(=O)[C@H](CC(C)C)NC(=O)[C@H](Cc2c[nH]c3ccccc23)NC(=O)[C@H](CC(=O)O)NC(=O)[C@H]2CCCN2C(=O)[C@H](CCC(=O)O)NC1=O)C(C)C)”, in data set [2] (scale 50 μmol), the isolated mass is 11.84 mg and the isolated yield was 5.8%.
In data set [2] (scale 50 μmol, thioether ring), “DOTA-Gln-[Cys(3MeBn)-Glu-pro-Asp-Aph(SaPr)-Leu-Thr-Trp-Ser-Cys]-NH2” showed an isolated mass of 9.95 mg and an isolated yield of 10.12%.
In data set [2] (scale 50 μmol, thioether ring), “DOTA-PPAc-Gln-[Cys(3MeBn)-Glu-pro-Asp-Af3(Cpsu)-Leu-Thr-Trp-Ser-Cys]-NH2” yielded an isolated mass of 14.00 mg and an isolated yield of 13.3%.
In data set [3], “DOTA-{Glu-[Cys(3MeBn)-Glu-pro-Asp-Af3(Cpsu)-Leu-Thr-Trp-Dap}-Cys]-NH2” had an isolated mass of 5.18 mg and an isolated yield of 5.3%.
The substance “PEPTIDE1{[ac].V.Y.C.E.[Nlys].D.W.L.T.W.A.C.[am]}|CHEM1{[3MeBn]}|CHEM2{[DOTA]}$PEPTIDE1,CHEM1,4:R3-1:R1|PEPTIDE1,CHEM1,13:R3-1:R2|PEPTIDE1,CHEM2,6:R3-1:R2$$$V2.0” yielded an isolated yield in data set [2] (scale 50 μmol) of 17.5%.
For “PEPTIDE1{[capDOTA].[resAPAc].V.Y.C.E.[dP].[gluNHMe2Nph].W.L.T.W.S.C.[am]}|CHEM1{[L3MeBn]}$PEPTIDE1,CHEM1,5:R3-1:R1|PEPTIDE1,CHEM1,14:R3-1:R2$$$V2.0”, in data set [2] (scale 50 μmol), the isolated mass came to 21.88 mg and the isolated yield is 10.1%.
Take “{DOTA}-YCE[dP]KWLEWSC-NH2 (linker 2-11 via mXylylene; lactam 5-8; SMILES CC(C)C[C@@H]1NC(=O)[C@H](Cc2c[nH]c3ccccc23)NC(=O)[C@@H]2CCCCNC(=O)CC[C@H](NC1=O)C(=O)N[C@@H](Cc1c[nH]c3ccccc13)C(=O)N[C@@H](CO)C(=O)N[C@H](C(N)=O)CSCc1cccc(c1)CSC[C@H](NC(=O)[C@H](Cc1ccc(O)cc1)NC(=O)CN1CCN(CC(=O)O)CCN(CC(=O)O)CCN(CC(=O)O)CC1)C(=O)N[C@@H](CCC(=O)O)C(=O)N1CCC[C@@H]1C(=O)N2) [3BP-3934]”: in data set [2] (scale 100 μmol), the isolated mass was 12.20 mg and the isolated yield was found to be 12.2%.
As to “{DOTA}-[X2]VDCE[dP]DWLTW[Dap]C-NH2 (lactam 3-12; linker 4-13 via mXylylene; SMILES CC(C)C[C@@H]1NC(=O)[C@H](Cc2c[nH]c3ccccc23)NC(=O)[C@H](CC(=O)O)NC(=O)[C@H]2CCCN2C(=O)[C@H](CCC(=O)O)NC(=O)[C@@H]2CSCc3cccc(c3)CSC[C@@H](C(N)=O)NC(=O)[C@H](CNC(=O)C[C@H](NC(=O)[C@@H](NC(=O)CN3CCC(NC(=O)CN4CCN(CC(=O)O)CCN(CC(=O)O)CCN(CC(=O)O)CC4)CC3)C(C)C)C(=O)N2)NC(=O)[C@H](Cc2c[nH]c3ccccc23)NC(=O)[C@H]([C@@H](C)O)NC1=O)”, in data set [2] (scale 100 μmol), the isolated mass is listed as 3.82 mg and the isolated yield came out at 2.3%.
For the substance “{DOTA}-[X2]VYCE[dP]DWLTWSC-NH2 (linker 4-13 via mXylylene; SMILES CC(C)C[C@@H]1NC(=O)[C@H](Cc2c[nH]c3ccccc23)NC(=O)[C@H](CC(=O)O)NC(=O)[C@H]2CCCN2C(=O)[C@H](CCC(=O)O)NC(=O)[C@@H](NC(=O)[C@H](Cc2ccc(O)cc2)NC(=O)[C@@H](NC(=O)CN2CCC(NC(=O)CN3CCN(CC(=O)O)CCN(CC(=O)O)CCN(CC(=O)O)CC3)CC2)C(C)C)CSCc2cccc(c2)CSC[C@@H](C(N)=O)NC(=O)[C@H](CO)NC(=O)[C@H](Cc2c[nH]c3ccccc23)NC(=O)[C@H]([C@@H](C)O)NC1=O)”, in data set [2] (scale 50 μmol), the isolated mass turned out to be 23.0 mg and the isolated yield is 11.4%.
In data set [2] (scale 50 μmol), “{DOTA}-[X2]VYCE[dP]D[X6]LTWSC-NH2 (linker 4-13 via mXylylene; SMILES CC(C)C[C@@H]1NC(=O)[C@H](Cc2cccc(NC(=O)CCC(=O)O)c2)NC(=O)[C@H](CC(=O)O)NC(=O)[C@H]2CCCN2C(=O)[C@H](CCC(=O)O)NC(=O)[C@@H](NC(=O)[C@H](Cc2ccc(O)cc2)NC(=O)[C@@H](NC(=O)CN2CCC(NC(=O)CN3CCN(CC(=O)O)CCN(CC(=O)O)CCN(CC(=O)O)CC3)CC2)C(C)C)CSCc2cccc(c2)CSC[C@@H](C(N)=O)NC(=O)[C@H](CO)NC(=O)[C@H](Cc2c[nH]c3ccccc23)NC(=O)[C@H]([C@@H](C)O)NC1=O)” showed an isolated mass of 14.04 mg and an isolated yield of 6.7%.
In the case of “{DOTA}-[X2]VYCE[dP]E(NH(1-deoxy-D-glucityl))WLTWSC-NH2 (linker 4-13 via mXylylene; SMILES CC(C)C[C@@H]1NC(=O)[C@H](Cc2c[nH]c3ccccc23)NC(=O)[C@H](CCC(=O)NC[C@H](O)[C@@H](O)[C@H](O)[C@H](O)CO)NC(=O)[C@H]2CCCN2C(=O)[C@H](CCC(=O)O)NC(=O)[C@@H](NC(=O)[C@H](Cc2ccc(O)cc2)NC(=O)[C@@H](NC(=O)CN2CCC(NC(=O)CN3CCN(CC(=O)O)CCN(CC(=O)O)CCN(CC(=O)O)CC3)CC2)C(C)C)CSCc2cccc(c2)CSC[C@@H](C(N)=O)NC(=O)[C@H](CO)NC(=O)[C@H](Cc2c[nH]c3ccccc23)NC(=O)[C@H]([C@@H](C)O)NC1=O)”, in data set [2] (scale 100 μmol), the isolated mass turned out to be 6.64 mg and the isolated yield was 2.88%.
